Source: patent publication US20090022712A1, “Compositions and Methods for Inhibiting Leukocyte Function” (UNIVERSITY OF VIRGINIA PATENT FOUNDATION, priority 2006, published 2009)
Not every detail of the peptide structures is certain; ends, links or a residue may be inferred. Where a SMILES comes first, the peptide text is derived from it.

Assays:
[1] = system: LPS-induced PMN migration into the lung; test: Murine model of acute lung injury: LPS-induced PMN trafficking in the lung
[2] = system: PMNs from C57B1/6 mice; test: In vitro transmigration assay (Transwell, with or without pulmonary endothelial cells); assay type: cell-based, mouse

CSCC[C@H](NC(=O)[C@@H](NC(=O)[C@H](CO)NC(=O)[C@@H](NC(=O)[C@H](CC(N)=O)NC(=O)[C@H](CCCNC(=N)N)NC(=O)[C@H](CCSC)NC(=O)[C@@H]1CCCN1C(=O)[C@@H]1CCCN1C(=O)[C@H](C)NC(=O)[C@@H]1CCCN1C(=O)[C@@H]1CCCN1C(=O)[C@H](CCCCN)NC(=O)CNC(=O)[C@H](CCCNC(=N)N)NC(=O)[C@H](CCCNC(=N)N)NC(=O)[C@H](CCCNC(=N)N)NC(=O)[C@H](CCC(N)=O)NC(=O)[C@H](CCCNC(=N)N)NC(=O)[C@H](CCCNC(=N)N)NC(=O)[C@H](CCCCN)NC(=O)[C@H](CCCCN)NC(=O)[C@H](CCCNC(=N)N)NC(=O)CNC(=O)[C@@H](N)Cc1ccc(O)cc1)[C@@H](C)O)[C@@H](C)O)C(=O)O [tat-PAK peptide] (H-YGRKKRRQRRRGKPPAPPMRNTSTM-OH; N-terminus and C-terminus assumed)
inhibition of neutrophil migration to IS (lung interstitium) ([1]; mice, LPS aerosol 30 min, peptide pretreatment): 60%
PMN accumulation in the vascular space ([1]; mice, LPS aerosol, peptide pretreatment): only weakly affected
blockade of neutrophil migration into the lung ([1]; models of lung inflammation in mice): ~100%
PMN migration across pulmonary endothelial cells ([2]; PMNs pretreated with peptide, listed as inhibitory PAK peptide): reduced
PMN migration across pulmonary endothelial cells ([2]; both PMNs and endothelial cells pretreated with peptide): almost completely inhibited
PMN migration across pulmonary endothelial cells ([2]; both PMNs and endothelial cells pretreated with peptide, listed as inhibitory PAK peptide): inhibited more efficiently
PMN migration across pulmonary endothelial cells ([2]; endothelial cells (PEC) pretreated with peptide): significantly reduces
PMN migration across pulmonary endothelial cells ([2]; endothelial cells (PEC) pretreated with peptide, listed as inhibitory PAK peptide): reduced
PMN migration through Transwell filter ([2]; no endothelial cells, baseline and CXCL2/3-stimulated, PMNs pretreated 20 μg/ml): reduced
